{"sequences": {"note": "Sequences of proteins named here, by UniProt entry; tags and fusion partners are left off. A change or cut given only in a name is not applied to a line headed by its entry.", "UniProt Q86VS8": "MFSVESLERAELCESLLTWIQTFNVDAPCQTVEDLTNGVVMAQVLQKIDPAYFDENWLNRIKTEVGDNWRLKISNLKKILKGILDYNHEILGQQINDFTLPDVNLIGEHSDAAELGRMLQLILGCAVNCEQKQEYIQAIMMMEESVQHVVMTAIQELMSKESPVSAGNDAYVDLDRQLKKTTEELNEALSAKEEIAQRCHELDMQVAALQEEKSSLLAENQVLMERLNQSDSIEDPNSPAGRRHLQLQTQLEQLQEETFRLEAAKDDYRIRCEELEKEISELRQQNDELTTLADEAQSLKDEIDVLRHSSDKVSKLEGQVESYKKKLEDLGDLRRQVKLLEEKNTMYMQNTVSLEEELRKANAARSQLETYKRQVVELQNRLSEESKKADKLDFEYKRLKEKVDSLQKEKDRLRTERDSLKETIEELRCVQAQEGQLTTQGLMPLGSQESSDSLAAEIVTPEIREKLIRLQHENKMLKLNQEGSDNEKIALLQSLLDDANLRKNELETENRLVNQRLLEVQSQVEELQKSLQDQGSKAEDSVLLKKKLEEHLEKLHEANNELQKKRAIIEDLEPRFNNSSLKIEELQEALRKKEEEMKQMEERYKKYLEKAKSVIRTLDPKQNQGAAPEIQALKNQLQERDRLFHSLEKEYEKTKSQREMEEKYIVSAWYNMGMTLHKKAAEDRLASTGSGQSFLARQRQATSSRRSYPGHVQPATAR", "UniProt Q9NQE9": "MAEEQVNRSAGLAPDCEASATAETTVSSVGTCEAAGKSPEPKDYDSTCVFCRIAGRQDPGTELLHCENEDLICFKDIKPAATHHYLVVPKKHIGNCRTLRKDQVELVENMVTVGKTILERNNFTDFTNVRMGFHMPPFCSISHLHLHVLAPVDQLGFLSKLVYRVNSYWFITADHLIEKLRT", "UniProt O43390": "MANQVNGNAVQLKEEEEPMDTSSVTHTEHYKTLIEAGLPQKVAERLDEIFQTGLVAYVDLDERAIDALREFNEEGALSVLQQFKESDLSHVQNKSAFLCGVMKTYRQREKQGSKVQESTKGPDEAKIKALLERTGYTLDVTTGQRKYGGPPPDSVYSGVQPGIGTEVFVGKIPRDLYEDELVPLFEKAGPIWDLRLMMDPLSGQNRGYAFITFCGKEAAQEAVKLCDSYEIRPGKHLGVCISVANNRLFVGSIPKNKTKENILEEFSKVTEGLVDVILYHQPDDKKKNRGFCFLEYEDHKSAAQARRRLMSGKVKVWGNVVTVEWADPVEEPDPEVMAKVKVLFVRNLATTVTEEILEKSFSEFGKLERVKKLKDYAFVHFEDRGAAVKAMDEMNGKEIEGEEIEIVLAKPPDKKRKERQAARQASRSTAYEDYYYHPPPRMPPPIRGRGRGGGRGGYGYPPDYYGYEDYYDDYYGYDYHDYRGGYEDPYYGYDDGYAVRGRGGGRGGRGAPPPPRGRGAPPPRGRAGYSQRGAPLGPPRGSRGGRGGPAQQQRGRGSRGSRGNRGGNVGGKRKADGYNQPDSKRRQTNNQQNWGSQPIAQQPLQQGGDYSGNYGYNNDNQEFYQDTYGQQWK", "UniProt Q5SSJ5": "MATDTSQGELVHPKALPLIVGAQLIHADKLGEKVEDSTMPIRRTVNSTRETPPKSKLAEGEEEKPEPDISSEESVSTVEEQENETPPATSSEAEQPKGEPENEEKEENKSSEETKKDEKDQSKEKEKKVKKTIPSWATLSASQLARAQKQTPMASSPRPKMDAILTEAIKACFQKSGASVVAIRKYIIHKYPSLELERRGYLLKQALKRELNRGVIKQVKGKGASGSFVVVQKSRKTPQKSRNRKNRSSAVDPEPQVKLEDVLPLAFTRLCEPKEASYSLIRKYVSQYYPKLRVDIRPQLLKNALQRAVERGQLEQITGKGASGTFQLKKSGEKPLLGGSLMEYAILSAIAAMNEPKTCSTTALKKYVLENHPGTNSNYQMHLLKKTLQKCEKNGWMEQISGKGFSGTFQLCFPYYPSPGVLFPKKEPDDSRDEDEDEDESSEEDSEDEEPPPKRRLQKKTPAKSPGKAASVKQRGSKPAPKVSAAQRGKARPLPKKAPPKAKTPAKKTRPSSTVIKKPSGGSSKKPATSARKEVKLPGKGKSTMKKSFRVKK", "UniProt Q9NWY4": "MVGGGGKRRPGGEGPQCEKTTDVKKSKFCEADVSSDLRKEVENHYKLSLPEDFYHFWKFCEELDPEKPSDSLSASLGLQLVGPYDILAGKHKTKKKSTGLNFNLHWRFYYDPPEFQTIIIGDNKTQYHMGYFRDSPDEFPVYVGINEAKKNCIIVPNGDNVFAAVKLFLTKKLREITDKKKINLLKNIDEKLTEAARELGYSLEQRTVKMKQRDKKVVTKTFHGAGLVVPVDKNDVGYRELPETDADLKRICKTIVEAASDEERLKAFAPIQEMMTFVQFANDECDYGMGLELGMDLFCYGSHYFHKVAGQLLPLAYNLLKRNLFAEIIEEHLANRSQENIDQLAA", "UniProt P17482": "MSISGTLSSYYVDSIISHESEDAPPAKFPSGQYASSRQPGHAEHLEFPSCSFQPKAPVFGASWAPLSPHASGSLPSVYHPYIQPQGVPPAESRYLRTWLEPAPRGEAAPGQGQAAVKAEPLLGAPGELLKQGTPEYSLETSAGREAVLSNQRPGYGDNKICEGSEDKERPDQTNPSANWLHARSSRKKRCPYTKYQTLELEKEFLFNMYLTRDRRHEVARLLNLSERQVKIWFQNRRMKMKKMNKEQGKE", "UniProt P19367": "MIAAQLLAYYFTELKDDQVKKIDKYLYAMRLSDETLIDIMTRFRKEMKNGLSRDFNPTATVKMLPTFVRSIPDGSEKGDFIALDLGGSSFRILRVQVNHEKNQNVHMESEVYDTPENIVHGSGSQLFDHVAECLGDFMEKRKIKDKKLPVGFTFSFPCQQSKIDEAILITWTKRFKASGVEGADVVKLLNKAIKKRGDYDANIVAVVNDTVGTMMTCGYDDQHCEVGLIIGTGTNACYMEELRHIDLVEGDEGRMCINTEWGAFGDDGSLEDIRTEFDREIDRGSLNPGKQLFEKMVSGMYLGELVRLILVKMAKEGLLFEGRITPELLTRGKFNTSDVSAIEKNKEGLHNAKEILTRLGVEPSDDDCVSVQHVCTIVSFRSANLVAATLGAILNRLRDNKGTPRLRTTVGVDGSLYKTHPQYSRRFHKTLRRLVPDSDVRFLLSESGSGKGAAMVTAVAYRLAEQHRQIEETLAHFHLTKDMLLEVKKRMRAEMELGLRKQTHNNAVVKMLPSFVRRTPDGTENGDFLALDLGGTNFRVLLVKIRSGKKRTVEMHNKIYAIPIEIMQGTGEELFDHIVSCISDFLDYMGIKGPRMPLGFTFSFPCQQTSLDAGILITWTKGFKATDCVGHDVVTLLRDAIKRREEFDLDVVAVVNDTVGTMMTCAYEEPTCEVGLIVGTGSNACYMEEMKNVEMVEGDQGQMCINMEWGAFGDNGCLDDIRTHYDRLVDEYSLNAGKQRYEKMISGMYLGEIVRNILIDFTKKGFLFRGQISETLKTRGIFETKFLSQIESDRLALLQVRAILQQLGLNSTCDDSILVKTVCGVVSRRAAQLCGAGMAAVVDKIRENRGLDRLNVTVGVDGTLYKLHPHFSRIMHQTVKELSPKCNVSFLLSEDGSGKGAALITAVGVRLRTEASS", "UniProt Q6AI08": "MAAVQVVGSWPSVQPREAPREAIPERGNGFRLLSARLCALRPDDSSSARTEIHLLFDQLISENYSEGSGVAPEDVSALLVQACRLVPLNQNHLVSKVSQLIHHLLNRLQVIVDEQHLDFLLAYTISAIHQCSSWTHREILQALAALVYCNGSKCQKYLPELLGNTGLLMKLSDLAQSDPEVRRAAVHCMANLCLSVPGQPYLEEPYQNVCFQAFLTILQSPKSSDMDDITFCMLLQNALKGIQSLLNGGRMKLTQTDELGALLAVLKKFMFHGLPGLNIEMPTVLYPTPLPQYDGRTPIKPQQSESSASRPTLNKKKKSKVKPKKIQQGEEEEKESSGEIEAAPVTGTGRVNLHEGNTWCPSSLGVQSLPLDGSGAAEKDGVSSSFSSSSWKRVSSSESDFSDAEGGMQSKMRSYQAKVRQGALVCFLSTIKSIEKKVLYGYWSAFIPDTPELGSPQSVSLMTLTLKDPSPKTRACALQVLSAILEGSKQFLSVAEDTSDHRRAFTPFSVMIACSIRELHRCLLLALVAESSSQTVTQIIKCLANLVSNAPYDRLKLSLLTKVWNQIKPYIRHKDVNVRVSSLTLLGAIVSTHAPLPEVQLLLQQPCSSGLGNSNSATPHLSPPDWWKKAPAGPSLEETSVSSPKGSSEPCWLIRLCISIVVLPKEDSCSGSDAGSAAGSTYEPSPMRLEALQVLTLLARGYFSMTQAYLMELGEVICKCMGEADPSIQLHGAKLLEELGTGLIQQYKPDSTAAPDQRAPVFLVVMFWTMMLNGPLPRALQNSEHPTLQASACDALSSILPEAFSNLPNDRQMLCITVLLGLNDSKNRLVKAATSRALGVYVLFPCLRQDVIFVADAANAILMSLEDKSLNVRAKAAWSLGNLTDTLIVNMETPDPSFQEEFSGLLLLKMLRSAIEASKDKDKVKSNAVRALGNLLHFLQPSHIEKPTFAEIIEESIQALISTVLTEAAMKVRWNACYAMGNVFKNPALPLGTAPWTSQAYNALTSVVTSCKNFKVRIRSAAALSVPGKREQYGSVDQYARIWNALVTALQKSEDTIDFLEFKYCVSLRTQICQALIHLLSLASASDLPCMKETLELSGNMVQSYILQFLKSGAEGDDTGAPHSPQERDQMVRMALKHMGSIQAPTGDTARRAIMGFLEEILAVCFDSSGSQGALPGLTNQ", "UniProt P52597": "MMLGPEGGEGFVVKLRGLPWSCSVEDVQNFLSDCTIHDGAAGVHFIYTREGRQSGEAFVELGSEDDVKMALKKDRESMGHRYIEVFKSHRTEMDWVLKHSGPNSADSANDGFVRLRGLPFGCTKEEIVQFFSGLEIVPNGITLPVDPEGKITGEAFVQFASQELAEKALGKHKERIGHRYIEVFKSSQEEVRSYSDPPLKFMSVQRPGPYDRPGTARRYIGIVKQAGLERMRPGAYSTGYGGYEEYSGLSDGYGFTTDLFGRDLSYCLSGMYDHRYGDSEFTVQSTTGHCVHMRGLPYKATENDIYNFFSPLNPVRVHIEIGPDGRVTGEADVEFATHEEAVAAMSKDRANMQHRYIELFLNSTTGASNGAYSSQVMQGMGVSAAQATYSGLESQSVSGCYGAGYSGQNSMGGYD", "UniProt Q969F9": "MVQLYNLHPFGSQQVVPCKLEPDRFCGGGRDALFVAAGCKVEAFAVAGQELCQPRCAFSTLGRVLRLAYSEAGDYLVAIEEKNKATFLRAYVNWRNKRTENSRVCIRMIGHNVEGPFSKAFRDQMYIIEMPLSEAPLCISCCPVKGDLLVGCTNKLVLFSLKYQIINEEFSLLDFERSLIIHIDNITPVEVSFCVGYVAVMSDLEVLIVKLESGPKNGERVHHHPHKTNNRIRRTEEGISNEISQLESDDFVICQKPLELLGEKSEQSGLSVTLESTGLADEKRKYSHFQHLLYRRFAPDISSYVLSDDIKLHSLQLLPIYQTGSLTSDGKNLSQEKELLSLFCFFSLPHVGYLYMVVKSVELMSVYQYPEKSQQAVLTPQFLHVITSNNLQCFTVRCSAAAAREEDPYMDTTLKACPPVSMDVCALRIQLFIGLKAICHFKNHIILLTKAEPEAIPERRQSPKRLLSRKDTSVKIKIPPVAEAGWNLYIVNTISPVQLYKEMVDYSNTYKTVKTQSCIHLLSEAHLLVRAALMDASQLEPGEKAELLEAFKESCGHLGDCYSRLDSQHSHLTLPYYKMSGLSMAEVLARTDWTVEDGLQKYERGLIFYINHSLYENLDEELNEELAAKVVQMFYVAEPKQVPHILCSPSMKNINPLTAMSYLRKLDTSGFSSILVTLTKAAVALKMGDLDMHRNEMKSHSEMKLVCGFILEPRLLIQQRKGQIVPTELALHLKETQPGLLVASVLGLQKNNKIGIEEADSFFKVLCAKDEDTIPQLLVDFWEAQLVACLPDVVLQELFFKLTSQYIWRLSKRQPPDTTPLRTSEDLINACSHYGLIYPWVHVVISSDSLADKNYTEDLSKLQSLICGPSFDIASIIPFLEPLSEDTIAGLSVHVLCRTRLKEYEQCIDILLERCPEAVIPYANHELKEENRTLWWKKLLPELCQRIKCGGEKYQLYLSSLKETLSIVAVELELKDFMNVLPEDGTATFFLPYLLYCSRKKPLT", "UniProt Q9BTY7": "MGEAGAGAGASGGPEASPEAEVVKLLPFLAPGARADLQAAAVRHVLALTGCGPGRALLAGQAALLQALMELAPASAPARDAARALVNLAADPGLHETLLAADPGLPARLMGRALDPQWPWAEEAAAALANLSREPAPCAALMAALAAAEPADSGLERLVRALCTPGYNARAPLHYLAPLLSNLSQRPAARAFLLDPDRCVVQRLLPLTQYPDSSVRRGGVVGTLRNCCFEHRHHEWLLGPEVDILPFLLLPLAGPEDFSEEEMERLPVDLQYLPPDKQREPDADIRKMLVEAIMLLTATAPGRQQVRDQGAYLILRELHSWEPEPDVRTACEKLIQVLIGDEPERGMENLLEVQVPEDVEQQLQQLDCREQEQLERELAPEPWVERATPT"}, "source": "the supplement of paper PMC10849652", "note": "This is one part of the list."}
{"compound": "CN1CCC(CNc2ccc3ncc(-c4cccc(OC(F)(F)F)c4)n3n2)CC1", "experiment": "log2 fold change, soluble protein after heating vs DMSO (PISA); higher = thermal stabilisation; K562 lysate, 10 uM; active = over 0.2 and 3.5 SD of the protein, either way, in both replicates (recomputed)", "outline": "(§1)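 Log-two fold change in thermal stability relative to solvent controls is reported from duplicates. For each sample, crude K562 extract from dounce-homogenised pellets in PBS pH 7.4 with 1 mM MgCl2, at 1 mg/mL protein, was treated with 10 μM compound for 30 min. Aliquots heated for 3 min across 48°C-58°C were pooled, brought to 0.5% NP-40 at 4°C and cleared at 21,000xg for 90 min. The supernatant was quantified by TMTpro 16plex LC-MS/MS with channel sums equalised.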"}
{"target": "HOOK3 (UniProt Q86VS8)", "log2 fold change": "inactive: 0.006"}
{"target": "HINT3 (UniProt Q9NQE9)", "log2 fold change": "inactive: -0.032"}
{"target": "HPS5 (UniProt Q9UPZ3)", "log2 fold change": "inactive: -0.074"}
{"target": "HNMT (UniProt P50135)", "log2 fold change": "inactive: 0.009"}
{"target": "HSBP1 (UniProt O75506)", "log2 fold change": "inactive: -0.488"}
{"target": "HNRNPR isoform 2 (UniProt O43390)", "log2 fold change": "inactive: -0.03"}
{"target": "HSPA1A (UniProt P0DMV8)", "log2 fold change": "inactive: -0.067"}
{"target": "HSD17B7 (UniProt P56937)", "log2 fold change": "inactive: 0.022"}
{"target": "HP1BP3 (UniProt Q5SSJ5)", "log2 fold change": "inactive: -0.023"}
{"target": "HPF1 (UniProt Q9NWY4)", "log2 fold change": "inactive: 0"}
{"target": "HECTD4 (UniProt J3KPF0)", "log2 fold change": "inactive: 0.043"}
{"target": "HNRNPA2B1 (UniProt P22626)", "log2 fold change": "inactive: 0.021"}
{"target": "HERPUD1 (UniProt Q15011)", "log2 fold change": "inactive: -0.001"}
{"target": "HOXB9 (UniProt P17482)", "log2 fold change": "inactive: 0.01"}
{"target": "HPS1 (UniProt Q92902)", "log2 fold change": "inactive: 0.031"}
{"target": "HOXB4 (UniProt P17483)", "log2 fold change": "inactive: 0.055"}
{"target": "HIRA (UniProt P54198)", "log2 fold change": "inactive: -0.007"}
{"target": "HEXD isoform 2 (UniProt Q8WVB3)", "log2 fold change": "inactive: 0.295"}
{"target": "HK1 isoform 2 (UniProt P19367)", "log2 fold change": "inactive: -0.013"}
{"target": "HEATR6 (UniProt Q6AI08)", "log2 fold change": "inactive: -0.008"}
{"target": "HSF2 (UniProt Q03933)", "log2 fold change": "inactive: 0.193"}
{"target": "HNRNPF (UniProt P52597)", "log2 fold change": "inactive: 0.008"}
{"target": "HPS3 (UniProt Q969F9)", "log2 fold change": "inactive: -0.079"}
{"target": "HSCB (UniProt Q8IWL3)", "log2 fold change": "inactive: -0.069"}
{"target": "HMCN1 (UniProt Q96RW7)", "log2 fold change": "inactive: -0.268"}
{"target": "HSP90AA1 isoform 2 (UniProt P07900)", "log2 fold change": "inactive: -0.049"}
{"target": "HGH1 (UniProt Q9BTY7)", "log2 fold change": "inactive: -0.052"}
{"compound": "CN1CCN(CCOc2cc(OC3CCOCC3)c3c(Nc4c(Cl)ccc5c4OCO5)ncnc3c2)CC1 [saracatinib]", "experiment": "log2 fold change, soluble protein after heating vs DMSO (PISA); higher = thermal stabilisation; K562 lysate, 10 uM; active = over 0.2 and 3.5 SD of the protein, either way, in both replicates (recomputed)", "outline": "as §1"}
{"target": "HOOK3 (UniProt Q86VS8)", "log2 fold change": "inactive: 0.018"}
{"target": "HINT3 (UniProt Q9NQE9)", "log2 fold change": "inactive: 0.011"}
{"target": "HPS5 (UniProt Q9UPZ3)", "log2 fold change": "inactive: -0.203"}
{"target": "HECW2 (UniProt Q9P2P5)", "log2 fold change": "inactive: 0.055"}
{"target": "HNMT (UniProt P50135)", "log2 fold change": "inactive: 0.124"}
{"target": "HSBP1 (UniProt O75506)", "log2 fold change": "inactive: -0.034"}
{"target": "HNRNPR isoform 2 (UniProt O43390)", "log2 fold change": "inactive: -0.039"}
{"target": "HSPA1A (UniProt P0DMV8)", "log2 fold change": "inactive: 0.004"}
{"target": "HSD17B7 (UniProt P56937)", "log2 fold change": "inactive: 0.292"}
{"target": "HP1BP3 (UniProt Q5SSJ5)", "log2 fold change": "inactive: 0.016"}
{"target": "HPF1 (UniProt Q9NWY4)", "log2 fold change": "inactive: -0.004"}
{"target": "HECTD4 (UniProt J3KPF0)", "log2 fold change": "inactive: 0.006"}
{"target": "HNRNPA2B1 (UniProt P22626)", "log2 fold change": "inactive: -0.003"}
{"target": "HOXB9 (UniProt P17482)", "log2 fold change": "inactive: -0.028"}
{"target": "HPS1 (UniProt Q92902)", "log2 fold change": "inactive: 0.086"}
{"target": "HOXB4 (UniProt P17483)", "log2 fold change": "inactive: 0.029"}
{"target": "HIRA (UniProt P54198)", "log2 fold change": "inactive: 0.066"}
{"target": "HJURP (UniProt Q8NCD3)", "log2 fold change": "inactive: 0.034"}
{"target": "HK1 isoform 2 (UniProt P19367)", "log2 fold change": "inactive: -0.015"}
{"target": "HEATR6 (UniProt Q6AI08)", "log2 fold change": "inactive: -0.007"}
{"target": "HSF2 (UniProt Q03933)", "log2 fold change": "inactive: -0.05"}
{"target": "HNRNPM (UniProt M0QZM1)", "log2 fold change": "inactive: -0.066"}
{"target": "HNRNPF (UniProt P52597)", "log2 fold change": "inactive: -0.013"}
{"target": "HPS3 (UniProt Q969F9)", "log2 fold change": "inactive: 0.048"}
{"target": "HPS4 isoform 4 (UniProt Q9NQG7)", "log2 fold change": "inactive: 0.01"}
{"target": "HSCB (UniProt Q8IWL3)", "log2 fold change": "inactive: -0.008"}
{"target": "HSP90AA1 isoform 2 (UniProt P07900)", "log2 fold change": "inactive: -0.006"}
{"target": "HGH1 (UniProt Q9BTY7)", "log2 fold change": "inactive: 0.016"}
{"compound": "CN1CCN(c2nc(C3=C(c4c[nH]c5ccccc45)C(=O)NC3=O)c3ccccc3n2)CC1 [sotrastaurin]", "experiment": "log2 fold change, soluble protein after heating vs DMSO (PISA); higher = thermal stabilisation; K562 lysate, 10 uM; active = over 0.2 and 3.5 SD of the protein, either way, in both replicates (recomputed)", "outline": "as §1"}
{"target": "HOOK3 (UniProt Q86VS8)", "log2 fold change": "inactive: 0.009"}
{"target": "HINT3 (UniProt Q9NQE9)", "log2 fold change": "inactive: 0.02"}
{"target": "HPS5 (UniProt Q9UPZ3)", "log2 fold change": "inactive: 0.084"}
{"target": "HECW2 (UniProt Q9P2P5)", "log2 fold change": "inactive: 0.065"}
{"target": "HNRNPR isoform 2 (UniProt O43390)", "log2 fold change": "inactive: 0.011"}
{"target": "HSPA1A (UniProt P0DMV8)", "log2 fold change": "inactive: 0.019"}
{"target": "HP1BP3 (UniProt Q5SSJ5)", "log2 fold change": "inactive: -0.002"}
{"target": "HPF1 (UniProt Q9NWY4)", "log2 fold change": "inactive: 0.077"}
{"target": "HECTD4 (UniProt J3KPF0)", "log2 fold change": "inactive: -0.024"}
{"target": "HNRNPA2B1 (UniProt P22626)", "log2 fold change": "inactive: 0.009"}
{"target": "HELZ2 (UniProt Q9BYK8)", "log2 fold change": "inactive: -0.28"}
{"target": "HOXB9 (UniProt P17482)", "log2 fold change": "inactive: -0.058"}
{"target": "HPS1 (UniProt Q92902)", "log2 fold change": "inactive: -0.007"}
{"target": "HOXB4 (UniProt P17483)", "log2 fold change": "inactive: -0.047"}
{"target": "HIRA (UniProt P54198)", "log2 fold change": "inactive: 0.085"}
{"target": "HJURP (UniProt Q8NCD3)", "log2 fold change": "inactive: -0.068"}
{"target": "HK1 isoform 2 (UniProt P19367)", "log2 fold change": "inactive: 0.004"}
{"target": "HEATR6 (UniProt Q6AI08)", "log2 fold change": "inactive: 0.064"}
{"target": "HNRNPM (UniProt M0QZM1)", "log2 fold change": "inactive: -0.054"}
{"target": "HNRNPF (UniProt P52597)", "log2 fold change": "inactive: -0.024"}
{"target": "HPS3 (UniProt Q969F9)", "log2 fold change": "inactive: 0.173"}
{"target": "HPS4 isoform 4 (UniProt Q9NQG7)", "log2 fold change": "inactive: 0.045"}
{"target": "HSCB (UniProt Q8IWL3)", "log2 fold change": "inactive: -0.026"}
{"target": "HSP90AA1 isoform 2 (UniProt P07900)", "log2 fold change": "inactive: -0.007"}
{"target": "HGH1 (UniProt Q9BTY7)", "log2 fold change": "inactive: 0.011"}
